Measurements: PubChem BioAssay (EPA / NIEHS)
Inconclusive means that the source gave no clear call. Such entries were picked first, then a sample of the others. Potencies beside an inconclusive call are fits to weak or partial responses and may not hold up. Active and inactive are the calls of the source. Rule for the calls: active = hit-call score of the fitted dose curve at least 0.9, where 1 is the maximum; inconclusive = response in the unintended direction; inactive = score below 0.9.

The chains behind the UniProt entries cited, without tags or fusion partners. Where a name states a change or a piece, a line headed by the entry shows the natural chain unless it says otherwise.
UniProt P22303: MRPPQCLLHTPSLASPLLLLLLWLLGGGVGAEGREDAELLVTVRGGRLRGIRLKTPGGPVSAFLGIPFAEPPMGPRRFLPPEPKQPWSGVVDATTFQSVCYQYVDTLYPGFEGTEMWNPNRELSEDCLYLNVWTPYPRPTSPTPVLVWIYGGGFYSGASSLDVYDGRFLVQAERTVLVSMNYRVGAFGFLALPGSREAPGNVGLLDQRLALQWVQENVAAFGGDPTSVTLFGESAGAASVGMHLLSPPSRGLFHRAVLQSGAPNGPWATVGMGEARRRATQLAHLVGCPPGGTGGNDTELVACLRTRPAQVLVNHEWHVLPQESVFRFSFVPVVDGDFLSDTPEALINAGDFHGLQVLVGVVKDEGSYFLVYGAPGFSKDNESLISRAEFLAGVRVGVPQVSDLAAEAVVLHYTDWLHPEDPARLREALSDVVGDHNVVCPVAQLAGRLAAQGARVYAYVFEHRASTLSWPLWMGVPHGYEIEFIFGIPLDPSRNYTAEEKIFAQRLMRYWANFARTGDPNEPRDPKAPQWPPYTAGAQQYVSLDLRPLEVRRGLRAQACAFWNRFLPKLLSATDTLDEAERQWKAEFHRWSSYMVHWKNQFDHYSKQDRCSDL

The compounds below were run against human Acetylcholinesterase (AChE), ACHE (gene 43) (UniProt P22303) (assay: NVS_ENZ_hAChE: NovaScreen (NVS) Enzymatic Assay for human Acetylcholinesterase (AChE) (AID 2283129)).
Description: NVS_ENZ_hAChE is a biochemical, single-readout assay that uses extracted gene-proteins in a cell-free assay. Measurements were taken 0.33 hour after chemical dosing in a 96-well plate.NVS_ENZ_hAChE is one of one assay component(s) measured or calculated from the NVS_ENZ_hAChE assay. It is designed to make measurements of enzyme activity, a form of enzyme reporter, as detected with absorbance signals by Colorimetric technology.Data from the assay component NVS_ENZ_hAChE was analyzed into 1 assay endpoint. This assay endpoint, NVS_ENZ_hAChE, was analyzed in the positive analysis fitting direction relative to DMSO as the negative control and baseline of activity. Using a type of enzyme reporter, loss-of-signal activity can be used to understand changes in the enzymatic activity as they relate to the gene ACHE. Furthermore, this assay endpoint can be referred to as a primary readout, because this assay has produced multiple assay endpoints where this one serves a enzymatic activity function. To generalize the intended target to other relatable targets, this assay endpoint is annotated to the esterase intended target family, where the subfamily is acetylcholinesterase.
Binding assays used specific radioligands (tritiated, iodinated) with non-radioactive competitive displacement ligands in agonist or antagonist protocols (as indicated) and various reference compounds and inhibitors to titrate specific binding to receptors and transporters. Most enzyme assays (CYPs, kinases, phosphatases, proteases, HDACs) used recombinant protein and specific substrates (fluorescence mostly, some colorimetric and radioactive) and inhibitors, followed by a biochemical separation of substrate and product. All assays for the biochemical HTS were initially run in duplicate at a single concentration (10 uM for CYP450 assays and 25 uM for all others). […] Each assay was run with positive and negative controls, and concurrent controls on every plate. The follow-up (secondary) screen tested active chemical-pairs in concentration series, as well as a few additional assays not tested in the primary screen, some selected negative inactives, and several cases re-run in the concentration series for confirmatory purposes.
For `CCOC(=O)O[C@H](C)OC(=O)c1ccc2c(c1)cc(C(=O)NC1CCN(C(C)C)CC1)n2Cc1cc(-c2ccc(Cl)s2)on1`, the AC50 was active: 5.36 µM.
In the case of `COC(=O)NS(=O)(=O)c1ccc(N)cc1`, the AC50 was inconclusive: 25 µM.
For `Cc1cc(SC2=C(O)C[C@@](CCc3ccc(N)cc3)(C(C)C)OC2=O)c(C(C)(C)C)cc1CO`, the AC50 was inconclusive: 4.96 µM.
For `COc1ccc2c(c1)c(CC(=O)O)c(C)n2C(=O)c1ccc(Cl)cc1`, the AC50 was inconclusive: 3.44 µM.
With `CC(C)CCCCCCOC(=O)c1ccc(C(=O)OCCCCCCC(C)C)c(C(=O)OCCCCCCC(C)C)c1` the AC50 was inconclusive: 25 µM.
With `CCCC(=NOCC)C1=C(O)CC(CC(C)SCC)CC1=O` (stereo not given) the AC50 was inconclusive: 43.1 µM.
With `O=C(OC[C@H]1O[C@@H](OC(=O)c2cc(O)c(O)c(OC(=O)c3cc(O)c(O)c(O)c3)c2)[C@H](OC(=O)c2cc(O)c(O)c(OC(=O)c3cc(O)c(O)c(O)c3)c2)[C@@H](OC(=O)c2cc(O)c(O)c(OC(=O)c3cc(O)c(O)c(O)c3)c2)[C@@H]1OC(=O)c1cc(O)c(O)c(OC(=O)c2cc(O)c(O)c(O)c2)c1)c1cc(O)c(O)c(OC(=O)c2cc(O)c(O)c(O)c2)c1` the AC50 was active: 0.644 µM.
`O=C1OC(c2ccc(O)cc2)(c2ccc(O)cc2)c2ccccc21` was tested, and the outcome was “inactive”.
`CC(C)CCCCCCOC(=O)C1CCCCC1C(=O)OCCCCCCC(C)C` (stereo not given) was tested, and the AC50 was inconclusive: 6.88 µM.
In the case of `CCCCCCCCOC(=O)CCCCCCCCC(=O)OCCCCCCCC`, the AC50 was inconclusive: 25 µM.
For `Cc1cc(CCN2CCN(c3nsc4ccccc34)CC2)cc2c1NC(=O)CC2(C)C`, the outcome was “inactive”.
In the case of `CSc1ccc(Oc2ccc(S(N)(=O)=O)cc2CN(C)C)cc1C`, the outcome was “inactive”.
For `CC(C)CCCCCCCOC(=O)CCCCC(=O)OCCCCCCCC(C)C`, the AC50 was active: 7.43 µM.
`O=c1n(Cl)c(=O)n(Cl)c(=O)n1Cl` was tested, and the AC50 was inconclusive: 25 µM.
For `COC(=O)c1ccc(I)cc1S(=O)(=O)NC(=O)Nc1nc(C)nc(OC)n1`, the AC50 was inconclusive: 40.3 µM.
For `CCC(=O)Nc1ccc(Cl)c(Cl)c1`, the outcome was “inactive”.
With `CCCCC(CC)COC(=O)c1ccc(C(=O)OCC(CC)CCCC)c(C(=O)OCC(CC)CCCC)c1` (stereo not given) the outcome was “inactive”.
In the case of `S=C(S)NCCNC(=S)S.[Mn+2].[S-]C([S-])=NCCN=C([S-])[S-].[Zn+2]`, the outcome was “inactive”.
With `O=c1[nH]c2ccc(S(=O)CCN3CCC(Cc4ccc(F)cc4)CC3)cc2o1` (stereo not given) the AC50 was active: 3.71 µM.
With `N#Cc1c[nH]cc1-c1cccc2c1OC(F)(F)O2` the outcome was “inactive”.
In the case of `COc1nc(C)nc(NC(=O)NS(=O)(=O)c2ccccc2OCCCl)n1`, the AC50 was inconclusive: 25 µM.
`CCNC(=O)NC(=O)C(C#N)=NOC` was tested, and the outcome was “inactive”.
`COc1cccc(-c2ccc(/C=C\CN3CCCCCC3)cc2Cl)c1` was tested, and the AC50 was active: 22.6 µM.
In the case of `CCCCCCCCCCCCCCCCOS(=O)(=O)O`, the AC50 was active: 16.8 µM.
For `CS(=O)(=O)c1ccc([C@@H](C[C@H]2CCC(=O)C2)C(=O)Nc2cnccn2)cc1Cl`, the outcome was “inactive”.
In the case of `COC(=O)c1ccccc1C(=O)O`, the AC50 was inconclusive: 45.1 µM.
In the case of `O=C(O)c1nc(Cl)ccc1Cl`, the outcome was “inactive”.
In the case of `CCn1nc(C)c2c1C(=O)NCC(c1ccc(O)cc1)=N2`, the AC50 was inconclusive: 4.96 µM.
For `CCOP(=S)(OCC)SCCSCC`, the AC50 was inconclusive: 25 µM.
For `CCCCCCCCCCCCCCCS(=O)(=O)Oc1ccccc1`, the AC50 was inconclusive: 12.5 µM.
With `Nc1cc2c3c(c1)C(c1ccccc1)=N[C@@H](NC(=O)c1cccnc1)C(=O)N3CC2` the AC50 was inconclusive: 25 µM.
For `CCCCCCOC(=O)CC(CC(=O)OCCCCCC)(OC(=O)CCC)C(=O)OCCCCCC`, the outcome was “inactive”.
In the case of `CCOC(=O)CC(SP(=O)(OC)OC)C(=O)OCC` (stereo not given), the outcome was “inactive”.
With `CNS(=O)(=O)c1cc(C(=O)N2CCC(CCN3C4CCC3CC(n3c(C)nc5ccccc53)C4)(c3cccc(F)c3)CC2)c(Cl)cc1F` (stereo not given) the outcome was “inactive”.
`S=C1NCCN1` was tested, and the AC50 was inconclusive: 38.3 µM.
For `CCCCCCCCCC`, the AC50 was inconclusive: 0.71 µM.
In the case of `C=CCc1ccc2c(c1)OCO2`, the AC50 was inconclusive: 5.35 µM.
For `OB(O)O`, the AC50 was inconclusive: 5.99 µM.
In the case of `NC(=O)N(O)[C@@H]1C=C[C@H](Oc2cccc(Oc3ccc(F)cc3)c2)C1`, the outcome was “inactive”.
For `CN(C)C(=O)NC1(c2ccccc2)CCN(CCC[C@]2(c3ccc(Cl)c(Cl)c3)CCCN(C(=O)c3ccccc3)C2)CC1`, the AC50 was active: 5.13 µM.
